This data set has as its target T1, PpBBX32 (Prunus persica) (UniProt A0A251PTV0).
T1 sequence (looked up): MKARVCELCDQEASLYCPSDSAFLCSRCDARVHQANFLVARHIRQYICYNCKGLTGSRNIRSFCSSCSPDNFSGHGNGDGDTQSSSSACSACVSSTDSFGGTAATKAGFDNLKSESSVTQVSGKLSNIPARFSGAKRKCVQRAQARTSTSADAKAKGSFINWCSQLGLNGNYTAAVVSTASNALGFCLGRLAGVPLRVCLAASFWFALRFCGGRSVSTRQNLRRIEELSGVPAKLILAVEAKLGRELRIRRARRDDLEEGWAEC
Briefly: EMSA. Conditions: LightShift Chemiluminescent EMSA kit (Thermo), biotin-labeled probes; pH and temperature not stated; recombinant protein; residues 1-264; protein details: N-terminal His-trigger factor (pColdTF fusion). Background: A gel shift assay detects complexes by their altered migration in electrophoresis.

A negative result means that nothing was seen under these conditions. At least one verdict was read from the data and is not stated in words by the source. Protein sequences can lack the tags named with them.

Turning to “CAGCTGTGACGTTCAAACCATGTCCACTGACACTA (double strand) [proPpMYB10.1 G-box1&2-mut]”, the binding result was “no binding”.
